Data on three sequences can be found in paper PMC11601584, “The RNA receptor RIG-I binding synthetic oligodeoxynucleotide promotes pneumonia survival”.

For at least one entry, the source does not settle the construct or the ends of the probe. For part of these data: At least one result comes from cells or an extract, where the contact may be indirect. Tags and fusion partners may be left off the protein sequences shown. For part of these data: At least one verdict was read from the data and is not stated in words by the source.

The target in data set [1] is T1, rhRIG-I (236-925), CARD-less (Homo sapiens) (UniProt O95786).
T1 sequence (looked up): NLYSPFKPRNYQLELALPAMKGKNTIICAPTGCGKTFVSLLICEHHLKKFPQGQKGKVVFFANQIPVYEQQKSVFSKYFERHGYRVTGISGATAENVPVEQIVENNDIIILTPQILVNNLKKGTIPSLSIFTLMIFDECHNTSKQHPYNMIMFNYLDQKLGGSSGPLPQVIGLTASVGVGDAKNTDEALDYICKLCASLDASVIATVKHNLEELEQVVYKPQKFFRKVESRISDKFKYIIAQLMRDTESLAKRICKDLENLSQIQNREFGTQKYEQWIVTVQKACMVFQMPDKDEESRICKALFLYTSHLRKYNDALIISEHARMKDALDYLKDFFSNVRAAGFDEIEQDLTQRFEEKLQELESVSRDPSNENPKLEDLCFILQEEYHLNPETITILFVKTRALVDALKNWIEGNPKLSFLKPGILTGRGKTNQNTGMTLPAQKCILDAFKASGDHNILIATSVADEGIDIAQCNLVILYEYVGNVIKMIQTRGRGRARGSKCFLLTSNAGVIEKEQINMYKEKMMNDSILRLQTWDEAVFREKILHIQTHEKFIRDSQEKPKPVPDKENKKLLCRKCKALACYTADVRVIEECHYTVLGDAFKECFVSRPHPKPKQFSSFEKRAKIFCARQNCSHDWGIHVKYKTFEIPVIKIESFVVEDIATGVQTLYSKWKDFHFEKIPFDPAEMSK
Put plainly: fluorescence anisotropy. The following applies: complete phosphorothioate backbone, FP: 20 mM Hepes pH 7.5, 150 mM NaCl, 2 mM TCEP, 4 mM MgCl2, 5% glycerol, 25 C, 2.5 nM labeled oligo, recombinant protein, residues 236-925, protein details: N-terminal His-tag, removed by TEV, label: 5' FAM, single-stranded DNA. A general note: Polarisation of emitted light reports the rotation of a fluorescent probe.

Data set [2] deals with T2, RIG-I, endogenous, MLE-15 cytosolic lysate (Mus musculus) (UniProt Q6Q899).
T2 sequence (looked up, limits assumed): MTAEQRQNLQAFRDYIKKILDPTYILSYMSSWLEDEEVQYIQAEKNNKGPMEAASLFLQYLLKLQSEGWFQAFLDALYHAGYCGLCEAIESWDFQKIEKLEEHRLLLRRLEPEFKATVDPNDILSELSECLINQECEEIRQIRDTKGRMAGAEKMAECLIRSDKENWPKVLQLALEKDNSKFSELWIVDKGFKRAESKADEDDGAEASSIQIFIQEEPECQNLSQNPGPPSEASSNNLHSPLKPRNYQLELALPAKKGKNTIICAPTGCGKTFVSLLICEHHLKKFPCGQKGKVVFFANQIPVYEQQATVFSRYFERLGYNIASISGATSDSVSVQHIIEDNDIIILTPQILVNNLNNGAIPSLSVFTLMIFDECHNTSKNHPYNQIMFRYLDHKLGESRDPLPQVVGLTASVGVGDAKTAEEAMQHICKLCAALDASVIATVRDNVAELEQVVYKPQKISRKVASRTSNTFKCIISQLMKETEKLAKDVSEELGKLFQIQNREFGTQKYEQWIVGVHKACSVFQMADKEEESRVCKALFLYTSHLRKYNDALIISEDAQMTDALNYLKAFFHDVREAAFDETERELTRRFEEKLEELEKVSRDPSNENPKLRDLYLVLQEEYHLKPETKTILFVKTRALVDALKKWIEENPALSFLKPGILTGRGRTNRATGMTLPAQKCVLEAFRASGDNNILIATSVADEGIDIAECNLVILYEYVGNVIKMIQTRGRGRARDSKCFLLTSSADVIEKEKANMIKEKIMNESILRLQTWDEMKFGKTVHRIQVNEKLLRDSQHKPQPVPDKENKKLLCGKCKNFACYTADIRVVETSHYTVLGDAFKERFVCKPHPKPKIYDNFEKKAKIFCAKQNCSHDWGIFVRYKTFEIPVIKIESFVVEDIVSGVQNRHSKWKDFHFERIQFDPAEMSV
As to the kind of experiment: pull-down (streptavidin, anti-RIG-I immunoblot). The following applies: lysate of ODN-treated cells, RNA polymerase III inhibitor ML-60218 had no effect; complete phosphorothioate backbone; protein in an extract; single-stranded …. A general note: In western blotting, separated proteins are transferred to a membrane and probed.

Data set [3] has as its target T3, RIG-I, endogenous, HBEC3-KT cytosolic lysate (Homo sapiens) (UniProt O95786).
T3 sequence (looked up, limits assumed): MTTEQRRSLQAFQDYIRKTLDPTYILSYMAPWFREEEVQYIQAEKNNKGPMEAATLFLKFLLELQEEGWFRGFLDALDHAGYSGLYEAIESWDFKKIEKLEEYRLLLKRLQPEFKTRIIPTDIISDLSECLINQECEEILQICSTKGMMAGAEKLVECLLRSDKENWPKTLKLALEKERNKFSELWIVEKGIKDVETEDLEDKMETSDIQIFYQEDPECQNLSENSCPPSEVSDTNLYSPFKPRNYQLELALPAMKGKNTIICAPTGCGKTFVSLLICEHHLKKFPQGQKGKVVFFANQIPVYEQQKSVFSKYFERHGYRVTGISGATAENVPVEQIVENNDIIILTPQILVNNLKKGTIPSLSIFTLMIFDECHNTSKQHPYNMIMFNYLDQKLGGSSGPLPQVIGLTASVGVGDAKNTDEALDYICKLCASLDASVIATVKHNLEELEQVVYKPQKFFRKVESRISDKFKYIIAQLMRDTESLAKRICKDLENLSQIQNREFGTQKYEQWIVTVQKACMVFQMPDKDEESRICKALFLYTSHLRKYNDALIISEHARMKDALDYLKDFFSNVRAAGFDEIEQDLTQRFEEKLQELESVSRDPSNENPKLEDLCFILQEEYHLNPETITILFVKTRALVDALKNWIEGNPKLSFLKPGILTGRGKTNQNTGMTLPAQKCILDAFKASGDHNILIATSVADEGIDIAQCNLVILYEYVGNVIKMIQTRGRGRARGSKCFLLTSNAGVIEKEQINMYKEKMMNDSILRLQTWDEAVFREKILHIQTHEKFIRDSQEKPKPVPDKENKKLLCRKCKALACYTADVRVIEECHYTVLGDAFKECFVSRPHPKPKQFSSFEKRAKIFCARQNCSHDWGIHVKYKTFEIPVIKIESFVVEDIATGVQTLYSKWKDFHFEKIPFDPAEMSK
Put plainly: pull-down (streptavidin, anti-RIG-I immunoblot). The settings on record: lysate of ODN-treated cells; complete phosphorothioate backbone; protein in an extract; single-stranded DNA.

The target of data set [4] is T2, RIG-I, endogenous, MLE-15 cytosolic lysate (Mus musculus). As to the kind of experiment: co-immunoprecipitation (anti-RIG-I, FITC fluorescence). The following applies: lysate of ODN-treated cells; complete phosphorothioate backbone; protein in an extract; single-stranded DNA.
Data set [5] addresses T3, RIG-I, endogenous, HBEC3-KT cytosolic lysate (Homo sapiens). Described as above. The settings on record: lysate of ODN-treated cells; complete phosphorothioate backbone; protein in an extract; single-stranded DNA.

Turning to “TCGTCGTCGTTCGAACGACGTTGAT [ODN M362, FAM]”, the binding result was “binds” in data set [1] (ADP-AlF4, 4 mM MgCl2, Kd only in figure) and “binds” in data set [1] (ATP, 4 mM MgCl2, Kd only in figure).

“TCGTCGTCGTTCGAACGACGTTGAT [ODN M362, biotinylated]”: the binding result in data set [2] and in data set [3] was “binds” throughout.

Take “TCGTCGTCGTTCGAACGACGTTGAT [ODN M362, FITC]”: the binding result in data set [4] and in data set [5] was “binds” each time.
